Measured values as given in PMC12024529.
These are yes or no findings as the source states them, for the method shown. In cells and extracts the contact can be indirect. Some results given as binding are weak or reduced against the parent protein; the word gives no strength.

Protein sequences, listed by entry. Tags and fused reporters are not part of them. Lines headed by an entry give the natural chain unless they say otherwise; changes in a name come on top. Chains listed by the source or under a name are the forms on record and can include a tag or linker. Residues count along the entry.
wild-type full-length coagulation factor VIII (P00451, residues 20-2351): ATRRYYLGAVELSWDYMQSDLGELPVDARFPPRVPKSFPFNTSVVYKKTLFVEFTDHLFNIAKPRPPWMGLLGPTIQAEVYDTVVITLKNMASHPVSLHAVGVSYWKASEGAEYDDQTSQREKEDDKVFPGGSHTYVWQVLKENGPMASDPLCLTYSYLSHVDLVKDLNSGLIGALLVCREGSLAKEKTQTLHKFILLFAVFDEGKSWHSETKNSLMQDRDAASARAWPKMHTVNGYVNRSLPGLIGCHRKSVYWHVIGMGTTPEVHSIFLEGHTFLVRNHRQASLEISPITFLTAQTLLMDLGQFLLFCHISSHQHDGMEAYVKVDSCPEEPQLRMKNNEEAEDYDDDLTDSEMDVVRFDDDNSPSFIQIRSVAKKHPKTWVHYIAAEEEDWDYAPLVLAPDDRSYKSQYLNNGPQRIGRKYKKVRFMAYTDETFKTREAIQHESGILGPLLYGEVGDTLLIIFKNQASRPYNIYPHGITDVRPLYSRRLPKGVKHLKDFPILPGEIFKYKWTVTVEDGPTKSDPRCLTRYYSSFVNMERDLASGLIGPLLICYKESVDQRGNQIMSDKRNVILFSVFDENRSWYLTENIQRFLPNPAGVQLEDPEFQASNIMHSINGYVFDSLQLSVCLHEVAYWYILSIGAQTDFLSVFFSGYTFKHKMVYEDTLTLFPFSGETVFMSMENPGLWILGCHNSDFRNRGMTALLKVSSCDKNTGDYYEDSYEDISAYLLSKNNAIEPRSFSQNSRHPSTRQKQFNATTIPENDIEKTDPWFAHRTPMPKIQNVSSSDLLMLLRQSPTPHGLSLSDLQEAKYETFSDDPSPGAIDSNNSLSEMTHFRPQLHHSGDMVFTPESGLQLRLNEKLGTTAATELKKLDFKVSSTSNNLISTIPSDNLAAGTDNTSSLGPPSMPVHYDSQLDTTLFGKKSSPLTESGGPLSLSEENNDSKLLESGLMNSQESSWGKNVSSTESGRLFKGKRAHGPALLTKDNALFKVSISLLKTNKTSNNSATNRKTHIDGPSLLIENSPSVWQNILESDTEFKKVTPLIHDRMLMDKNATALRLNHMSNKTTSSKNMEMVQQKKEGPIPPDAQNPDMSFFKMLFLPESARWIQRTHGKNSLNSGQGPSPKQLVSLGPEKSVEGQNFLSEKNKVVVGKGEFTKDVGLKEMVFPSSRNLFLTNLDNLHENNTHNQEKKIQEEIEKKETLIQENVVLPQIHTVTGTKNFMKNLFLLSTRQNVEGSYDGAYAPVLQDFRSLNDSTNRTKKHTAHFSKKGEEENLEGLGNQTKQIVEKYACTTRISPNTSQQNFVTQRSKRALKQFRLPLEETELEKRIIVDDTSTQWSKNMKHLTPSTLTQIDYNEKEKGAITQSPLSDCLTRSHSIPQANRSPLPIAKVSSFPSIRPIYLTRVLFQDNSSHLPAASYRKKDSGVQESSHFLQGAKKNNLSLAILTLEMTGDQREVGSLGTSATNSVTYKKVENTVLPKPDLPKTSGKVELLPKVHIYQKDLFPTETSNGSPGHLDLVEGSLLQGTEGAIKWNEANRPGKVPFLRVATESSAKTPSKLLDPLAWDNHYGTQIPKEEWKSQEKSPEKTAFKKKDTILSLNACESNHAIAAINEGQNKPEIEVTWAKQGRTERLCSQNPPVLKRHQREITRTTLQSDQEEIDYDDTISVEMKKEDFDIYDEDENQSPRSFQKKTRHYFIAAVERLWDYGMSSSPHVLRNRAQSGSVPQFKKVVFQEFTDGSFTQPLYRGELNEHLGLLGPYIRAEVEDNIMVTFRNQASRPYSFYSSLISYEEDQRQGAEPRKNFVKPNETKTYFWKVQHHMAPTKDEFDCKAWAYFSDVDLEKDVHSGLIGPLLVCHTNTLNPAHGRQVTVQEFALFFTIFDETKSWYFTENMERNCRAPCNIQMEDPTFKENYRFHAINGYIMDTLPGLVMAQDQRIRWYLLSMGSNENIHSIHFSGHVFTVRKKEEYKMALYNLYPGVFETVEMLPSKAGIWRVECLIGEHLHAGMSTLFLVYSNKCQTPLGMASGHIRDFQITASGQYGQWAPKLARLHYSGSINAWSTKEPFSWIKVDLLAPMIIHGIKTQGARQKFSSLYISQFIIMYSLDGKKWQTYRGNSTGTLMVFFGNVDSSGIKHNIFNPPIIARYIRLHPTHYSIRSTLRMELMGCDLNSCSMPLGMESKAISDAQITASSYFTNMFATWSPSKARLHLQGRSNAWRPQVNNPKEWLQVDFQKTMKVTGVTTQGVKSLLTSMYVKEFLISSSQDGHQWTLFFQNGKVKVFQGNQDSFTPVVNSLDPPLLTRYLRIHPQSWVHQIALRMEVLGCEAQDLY
full-length factor VIII missense mutant p.I585T (P00451, form named): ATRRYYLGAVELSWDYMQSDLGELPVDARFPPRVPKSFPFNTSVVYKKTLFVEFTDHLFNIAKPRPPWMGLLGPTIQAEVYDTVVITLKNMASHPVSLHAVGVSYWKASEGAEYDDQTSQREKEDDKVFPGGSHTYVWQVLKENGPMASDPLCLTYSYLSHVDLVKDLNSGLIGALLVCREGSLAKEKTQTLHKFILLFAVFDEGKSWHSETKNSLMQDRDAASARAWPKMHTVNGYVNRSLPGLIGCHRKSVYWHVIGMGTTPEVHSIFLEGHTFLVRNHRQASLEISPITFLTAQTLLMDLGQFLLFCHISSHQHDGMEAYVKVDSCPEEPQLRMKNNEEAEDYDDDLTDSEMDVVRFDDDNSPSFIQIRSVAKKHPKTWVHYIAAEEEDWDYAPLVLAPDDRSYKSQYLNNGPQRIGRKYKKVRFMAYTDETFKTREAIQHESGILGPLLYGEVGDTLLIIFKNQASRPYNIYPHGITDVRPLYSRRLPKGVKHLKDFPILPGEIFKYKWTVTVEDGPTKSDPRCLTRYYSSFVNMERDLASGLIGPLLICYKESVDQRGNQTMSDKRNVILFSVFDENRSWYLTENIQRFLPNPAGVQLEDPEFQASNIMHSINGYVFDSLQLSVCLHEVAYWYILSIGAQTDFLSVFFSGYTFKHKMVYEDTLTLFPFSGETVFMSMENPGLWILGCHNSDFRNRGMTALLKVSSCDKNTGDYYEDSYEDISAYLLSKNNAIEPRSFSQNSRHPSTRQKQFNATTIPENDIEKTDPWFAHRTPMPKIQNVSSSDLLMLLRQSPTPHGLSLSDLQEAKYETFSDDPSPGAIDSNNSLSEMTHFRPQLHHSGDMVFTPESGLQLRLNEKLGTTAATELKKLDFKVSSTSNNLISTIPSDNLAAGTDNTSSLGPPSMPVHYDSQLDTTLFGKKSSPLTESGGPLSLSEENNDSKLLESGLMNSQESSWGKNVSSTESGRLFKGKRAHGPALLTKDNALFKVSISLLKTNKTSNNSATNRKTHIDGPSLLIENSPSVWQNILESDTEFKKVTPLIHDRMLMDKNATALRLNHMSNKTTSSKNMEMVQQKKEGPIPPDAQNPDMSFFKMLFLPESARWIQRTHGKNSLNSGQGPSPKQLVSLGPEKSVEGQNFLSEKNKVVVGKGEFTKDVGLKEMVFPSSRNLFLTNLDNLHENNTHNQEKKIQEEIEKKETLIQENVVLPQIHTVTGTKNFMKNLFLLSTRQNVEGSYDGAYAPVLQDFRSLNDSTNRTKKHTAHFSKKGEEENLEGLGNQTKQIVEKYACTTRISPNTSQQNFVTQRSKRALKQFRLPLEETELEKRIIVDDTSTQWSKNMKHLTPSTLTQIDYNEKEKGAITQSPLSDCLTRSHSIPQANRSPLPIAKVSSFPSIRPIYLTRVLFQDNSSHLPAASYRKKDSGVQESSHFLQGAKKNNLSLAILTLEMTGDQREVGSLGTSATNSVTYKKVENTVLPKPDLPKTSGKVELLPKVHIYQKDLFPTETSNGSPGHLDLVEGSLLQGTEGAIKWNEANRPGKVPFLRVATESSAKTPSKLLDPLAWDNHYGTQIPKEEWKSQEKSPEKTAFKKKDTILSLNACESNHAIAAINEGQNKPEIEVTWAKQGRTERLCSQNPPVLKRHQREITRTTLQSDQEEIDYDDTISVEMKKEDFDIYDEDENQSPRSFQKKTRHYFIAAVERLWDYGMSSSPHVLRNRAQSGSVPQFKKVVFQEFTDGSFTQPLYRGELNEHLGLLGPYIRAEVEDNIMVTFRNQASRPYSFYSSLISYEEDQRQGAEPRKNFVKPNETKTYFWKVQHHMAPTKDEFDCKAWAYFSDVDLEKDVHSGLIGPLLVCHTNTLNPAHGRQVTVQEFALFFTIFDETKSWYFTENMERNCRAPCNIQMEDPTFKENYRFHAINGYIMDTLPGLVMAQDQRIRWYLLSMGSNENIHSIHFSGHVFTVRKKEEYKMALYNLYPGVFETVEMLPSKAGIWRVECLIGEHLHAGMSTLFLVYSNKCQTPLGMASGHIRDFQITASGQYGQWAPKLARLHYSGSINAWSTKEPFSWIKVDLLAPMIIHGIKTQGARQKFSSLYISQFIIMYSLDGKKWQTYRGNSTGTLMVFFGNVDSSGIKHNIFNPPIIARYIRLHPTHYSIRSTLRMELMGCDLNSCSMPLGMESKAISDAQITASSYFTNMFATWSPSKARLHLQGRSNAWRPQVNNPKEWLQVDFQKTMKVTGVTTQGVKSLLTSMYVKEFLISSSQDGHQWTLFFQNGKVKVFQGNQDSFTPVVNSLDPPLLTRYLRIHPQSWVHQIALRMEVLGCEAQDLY
UniProt P11021, residues 19-654: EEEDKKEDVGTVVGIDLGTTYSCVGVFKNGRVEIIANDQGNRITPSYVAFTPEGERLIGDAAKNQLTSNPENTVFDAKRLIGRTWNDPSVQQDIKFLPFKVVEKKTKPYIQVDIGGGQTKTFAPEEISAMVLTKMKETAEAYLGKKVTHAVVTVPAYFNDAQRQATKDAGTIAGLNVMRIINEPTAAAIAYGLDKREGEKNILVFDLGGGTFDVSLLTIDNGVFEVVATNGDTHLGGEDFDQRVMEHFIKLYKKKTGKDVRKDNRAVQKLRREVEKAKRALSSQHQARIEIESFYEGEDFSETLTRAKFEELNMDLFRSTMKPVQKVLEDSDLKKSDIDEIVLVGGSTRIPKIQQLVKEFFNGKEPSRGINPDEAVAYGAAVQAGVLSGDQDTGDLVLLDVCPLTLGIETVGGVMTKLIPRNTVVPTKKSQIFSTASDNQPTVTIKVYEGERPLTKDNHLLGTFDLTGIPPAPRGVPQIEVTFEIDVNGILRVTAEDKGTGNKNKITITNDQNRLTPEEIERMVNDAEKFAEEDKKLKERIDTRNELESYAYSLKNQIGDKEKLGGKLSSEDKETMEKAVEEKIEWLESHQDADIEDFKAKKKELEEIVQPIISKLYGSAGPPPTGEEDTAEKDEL

Key:
Assay in all cases: co-IP; lysates of transfected HEK293T cells (NP-40 lysis buffer: 50 mM Tris-Cl pH 7.5, 150 mM NaCl, 1% NP-40, 0.05% SDS); FVIII precipitated with agarose-bead-conjugated monoclonal anti-human FVIII, blots for BiP and CALR; cells untreated or treated with 2.5 µM SAHA or BIX (20 µM, 5 µM) for 24 h
[1] = target: full-length factor VIII missense mutant p.I585T (human) (UniProt P00451)
[2] = target: full-length factor VIII missense mutant p.N601D (human) (UniProt P00451)
[3] = target: full-length factor VIII missense mutant p.R546W (human) (UniProt P00451)
[4] = target: full-length factor VIII missense mutant p.R550H (human) (UniProt P00451)
[5] = target: wild-type full-length coagulation factor VIII (human) (UniProt P00451)

Measured: binding

immunoglobulin binding protein (BiP/GRP78) (from UniProt P11021 19-654)
binds: all assays above

calreticulin (from UniProt P27797 18-417)
binds: all assays above
